Patent publication US11299518B2, “Fusion respiratory syncytial virus inhibitors and use thereof” (priority 2016, dated 2022)
Some results were stated once for a whole list of compounds, not compound by compound. Bridge positions count the residues as written; N and C are the ends. Square brackets hold non-standard residues; d marks the D form. Peptide text beside a SMILES is read from it. R8 = C=CCCCCCC[C@@](C)(N)C(=O)O; S5 = C=CCCC[C@](C)(N)C(=O)O

Tested on: recombinant green fluorescent protein (GFP)-expressing RSV virus (strain A2)
Format: cell-based
Conditions: A549 cells, FACS, read-out: EC50, block of viral infection of cells
Method: The inhibitory activity of the peptides of the invention was assessed in a cellular viral fusion assay as compared to comparative peptides as follows. A549 cells were infected with a recombinant green fluorescent protein (GFP)-expressing RSV virus (strain A2) obtained as described below and in Hallak et al., 2000, Virology, 271:264-275, and the inhibitory activity of the peptides was quantified by flow cytometry.
Following rapid thawing of the frozen eGFP encoding RSV virus at […], the virus was vortexed for 2 min, and pipetted up and down to break aggregates. Serial 4-fold dilutions of inhibitors were prepared in glass tubes and mixed with a volume of virus required to achieve approximately 50% of infection in 200 μl of media containing 2% of FCS. The resulting mixture was added to 24-well plates containing A549 cells. Cells were incubated for 2 hours at 37° C., the media was replaced, and cells were incubated for an additional 24 hours. Cells were treated with 300 μl of trypsin for 10 min at 37° C., and the detached cells were diluted in 1 ml of culture medium. Following centrifugation at 1′700 rpm, the pellet was resuspended in 300 μl of PBS+1% SBF (V/V) and GFP positive cells were counted by FACS analysis.

Row | SMILES | EC50 [µM]
1 | CC[C@H](C)[C@@H]1NC(=O)[C@H](Cc2ccccc2)NC(=O)[C@@](C)(NC(=O)[C@H](CC(C)C)NC(=O)[C@H](CO)NC(=O)[C@H](CCC(N)=O)NC(=O)[C@H](CCC(=O)O)NC(C)=O)CCCC=CCCC[C@@](C)(C(=O)N[C@@H](CO)C(=O)N[C@@H](CC(=O)O)C(=O)N[C@@H](CCC(=O)O)C(=O)N[C@@H](CC(C)C)C(=O)N[C@@H](CC(C)C)C(=O)N[C@@H](Cc2c[nH]cn2)C(=O)N[C@@H](CC(N)=O)C(=O)N[C@H](C(N)=O)C(C)C)NC(=O)[C@H](CCCNC(=N)N)NC1=O [Peptide 3a, EQSL X504 FIR X508 SDELLHNV, reference compound] (Ac-EQSL[S5]FIR[S5]SDELLHNV-NH2; staple 5-9) | > 90
2 | CC[C@H](C)[C@H](NC(=O)[C@H](CCCCN)NC(=O)[C@H](CCC(=O)O)NC(C)=O)C(=O)N[C@@H](CC(N)=O)C(=O)N[C@@H](CCC(N)=O)C(=O)N[C@@H](CO)C(=O)N[C@@H](CC(C)C)C(=O)N[C@]1(C)CCCCCCC=CCCC[C@@](C)(C(=O)N[C@@H](CC(C)C)C(=O)N[C@@H](CC(C)C)C(=O)N[C@@H](Cc2c[nH]cn2)C(=O)N[C@@H](CC(N)=O)C(=O)N[C@H](C(N)=O)C(C)C)NC(=O)[C@H](CC(=O)O)NC(=O)[C@H](CO)NC(=O)[C@H](CCCCN)NC(=O)[C@H](CCCNC(=N)N)NC(=O)[C@H]([C@@H](C)CC)NC(=O)[C@H](Cc2ccccc2)NC1=O [Peptide 4e, EKINQSL 8504 FIRKSD X511 LLHNV] (Ac-EKINQSL[R8]FIRKSD[S5]LLHNV-NH2; staple 8-15) | > 90
